From patent publication US20170320960A1
Results are given in words; binding and its absence hold for the method and conditions named. Some entries that bind do so weakly or less than the wild type.

Protein sequences, listed by entry. Tags and fused reporters are not part of them. Lines headed by an entry give the natural chain unless they say otherwise; changes in a name come on top.
UniProt P08582: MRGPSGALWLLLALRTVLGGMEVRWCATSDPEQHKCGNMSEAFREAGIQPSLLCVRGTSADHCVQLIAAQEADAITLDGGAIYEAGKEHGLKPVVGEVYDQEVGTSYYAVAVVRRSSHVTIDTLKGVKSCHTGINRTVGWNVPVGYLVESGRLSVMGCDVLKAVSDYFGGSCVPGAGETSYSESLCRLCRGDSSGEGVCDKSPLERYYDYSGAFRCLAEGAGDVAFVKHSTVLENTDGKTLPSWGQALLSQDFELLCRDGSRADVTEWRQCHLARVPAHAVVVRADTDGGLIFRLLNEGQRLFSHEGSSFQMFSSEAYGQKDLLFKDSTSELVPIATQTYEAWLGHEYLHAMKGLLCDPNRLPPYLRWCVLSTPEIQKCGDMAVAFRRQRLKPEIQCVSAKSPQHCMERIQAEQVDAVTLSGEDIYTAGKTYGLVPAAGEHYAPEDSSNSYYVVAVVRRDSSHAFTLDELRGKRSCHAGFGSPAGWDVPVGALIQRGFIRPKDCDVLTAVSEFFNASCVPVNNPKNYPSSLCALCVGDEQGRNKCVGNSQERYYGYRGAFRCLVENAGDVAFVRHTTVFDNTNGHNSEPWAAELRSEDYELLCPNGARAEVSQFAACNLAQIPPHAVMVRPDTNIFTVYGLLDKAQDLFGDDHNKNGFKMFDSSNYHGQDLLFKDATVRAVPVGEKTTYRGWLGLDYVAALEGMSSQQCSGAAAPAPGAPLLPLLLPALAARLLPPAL

Target: hMFI2 Tf-like Domain 2 (TLD2), amino acids 366-709, displayed on yeast (human) (UniProt P08582)
Test: flow cytometry on yeast displaying hMFI2 domains

B1: SC57.6 (antibody, V domains shown)
VH: GVQVVESGGGVVQPGGSLKLSCAASGFTFSSYAMSWVRQTPEKRLEWVAYLSRGGGSTYYLDTVKGRFTISRDNAKNTLYLQMNSLKSEDTAMYYCARLDGYNWYFDVWGAGTPVTVSS
VL: DIVMSQSPSSLAVSAGEKVTMSCKSSQSLLHSRIRKNYLAWYQQKPGQSPKLLIYWASTRESGVPDRFTGSGSGTDFTLTISSVQAEDLAVYYCKQSYNLFTFGGGTKLEIK
binding: binds

B2: SC57.29 (antibody, V domains shown)
VH: QVQLQQSGAELMKPGASVKISCKATGYTFSNYRIEWIKQRPGHGLEWIGEILPRGGNTNYNEKFKGKATFTADTSSNTAYMQLTSLTSEDSAVYYCARDDGYYGRFAYWGQGTLVTVSA
VL: DIQMTQTTSSLSASLGDRVTISCRASQDISNYLNWYQQKPDGTVKLLIFYTSRLHSGVPSRFSGSGSGTDYSLTISNLEQEDFATYFCQQGNTLPPTFGGGTKLEIK
binding: binds

B3: SC57.30 (antibody, V domains shown)
VH: QVQLQQSGAELMKPGASVKISCKATGYTFSNYRIEWIKQRPGHGLEWIGEILPRGGNTNYNEKFKGKATFTADTSSNTAYMQLTSLTSEDSAVYYCARDDGYYGRFAYWGQGTLVTVSA
VL: DIQMTQTTSSLSASLGDRVTISCRASQDISNYLNWYQQKPDGTVKLLIFYTSRLHSGVPSRFSGSGSGTDYSLTISNLEQEDFATYFCQQGNTLPPTFGGGTKLEIK
binding: binds

B4: SC57.35 (antibody, V domains shown)
VH: QVQLQQSGAELMKPGASVKISCKATGYTFSNYRIEWIKQRPGHGLEWIGEILPRGGNTNYNEKFKGKATFTADTSSNTAYMQLTSLTSEDSAVYYCARDDGYYGRFAYWGQGTLVTVSA
VL: DIQMTQTTSSLSASLGDRVTISCRASQDISNYLNWYQQKPDGTVKLLIFYTSRLHSGVPSRFSGSGSGTDYSLTISNLEQEDFATYFCQQGNTLPPTFGGGTKLEIK
binding: binds

B5: SC57.38 (antibody, V domains shown)
VH: QVQLQQSGAELMKPGASVKISCKATGYTFSNYRIEWIKQRPGHGLEWIGEILPRGGNTNYNEKFKGKATFTADTSSNTAYMQLTSLTSEDSAVYYCARDDGYYGRFAYWGQGTLVTVSA
VL: DIQMTQTTSSLSASLGDRVTISCRASQDISNYLNWYQQKPDGTVKLLIFYTSRLHSGVPSRFSGSGSGTDYSLTISNLEQEDFATYFCQQGNTLPPTFGGGTKLEIK
binding: binds

B6: SC57.40 (antibody, V domains shown)
VH: QVQLQQSGAELMKPGASVKISCKATGYTFSNYRIEWIKQRPGHGLEWIGEILPRGGNTNYNEKFKGKATFTADTSSNTAYMQLTSLTSEDSAVYYCARDDGYYGRFAYWGQGTLVTVSA
VL: DIQMTQTTSSLSASLGDRVTISCRASQDISNYLNWYQQKPDGTVKLLIFYTSRLHSGVPSRFSGSGSGTDYSLTISNLEQEDFATYFCQQGNTLPPTFGGGTKLEIK
binding: binds

B7: SC57.41 (antibody, V domains shown)
VH: QVQLQQSGAELMKPGASVKISCKATGYTFSNYRIEWMKQRPGHGLEWIGEILPRTGNTNYNENFKGKATFTADTSSNTAYIQLSSLTSEDSAVYYCARDDGYYGRFAYWGQGTLVTVSA
VL: DIQMTQTTSSLSASLGDRVTISCRASQDISSYLNWYQQKPDGTVKLLIYYTSRLHSGVPSRFSGSGSGTDYSLTINNLEQEDIATYFCQQGNTLPPTFGGGTKLEIK
binding: binds

B8: SC57.45 (antibody, V domains shown)
VH: QVQLQQSGAELMKPGASVKISCKATGYTFSNYRIEWIKQRPGHGLEWIGEILPRGGNTNYNEKFKGKATFTADTSSNTAYMQLTSLTSEDSAVYYCARDDGYYGRFAYWGQGTLVTVSA
VL: DIQMTQTTSSLSASLGDRVTISCRASQDISNYLNWYQQKPDGTVKLLIFYTSRLHSGVPSRFSGSGSGTDYSLTISNLEQEDFATYFCQQGNTLPPTFGGGTKLEIK
binding: binds

B9: SC57.46 (antibody, V domains shown)
VH: QVQLKESGPGLVAPSQSLSITCTVSGFSLTSYGVHWVRQPPGKGLEWLGIIWAGGTTNYNSALMSRLSIRKDNSKSQVFLKMNSLQTDDTAMYYCARDRGYDGYFDYAVDYWGQGTSVTVSS
VL: DIQMTQSPPSLSASVGETVTITCRTSENIYSYLTWYQQKQGKSPQLLVYNAKTLAEGVPSRFSGSGSGTQFSLKINSLQPEDFGSYYCQHHYGTPLTFGAGTKLELK
binding: binds

B10: SC57.47 (antibody, V domains shown)
VH: QVQLQQSGAELMKPGASVKISCKATGYTFSNYRIEWIKQRPGHGLEWIGEILPRGGNTNYNEKFKGKATFTADTSSNTAYMQLTSLTSEDSAVYYCARDDGYYGRFAYWGQGTLVTVSA
VL: DIQMTQTTSSLSASLGDRVTISCRASQDISNYLNWYQQKPDGTVKLLIFYTSRLHSGVPSRFSGSGSGTDYSLTISNLEQEDFATYFCQQGNTLPPTFGGGTKLEIK
binding: binds

B11: SC57.51 (antibody, V domains shown)
VH: QVQLQQSGAELMKPGASVKISCKATGYTFSNYRIEWIKQRPGHGLEWIGEILPRGGNTNYNEKFKGKATFTADTSSNTAYMQLTSLTSEDSAVYYCARDDGYYGRFAYWGQGTLVTVSA
VL: DIQMTQTTSSLSASLGDRVTISCRASQDISNYLNWYQQKPDGTVKLLIFYTSRLHSGVPSRFSGSGSGTDYSLTISNLEQEDFATYFCQQGNTLPPTFGGGTKLEIK
binding: binds

B12: SC57.53 (antibody, V domains shown)
VH: QVHLKESGPGLVAPSQSLSITCTVSGFSLTTYGVHWVRQPPGKGLEWLGVIWAGGSTKYNSAFMSRLSISKDNSKTQVLLKMNSLQTDDTAMYYCARVASHGSSSWFAYWGQGTLVTVSA
VL: DIVLTQSPATLSVTPGDSVSLSCRASQSVGNSLHWYQQKSHESPRLLIKYASQSISGIPSRFSGSGSGTDFTLSINSVETEDFGMYFCQQSDSWPLTFGTGTKLELK
binding: binds

B13: SC57.54 (antibody, V domains shown)
VH: QVQLQQSGAELMKPGASVKISCKATGYTFSNYRIEWIKQRPGHGLEWIGEILPRGGNTNYNEKFKGKATFTADTSSNTAYMQLTSLTSEDSAVYYCARDDGYYGRFAYWGQGTLVTVSA
VL: DIQMTQTTSSLSASLGDRVTISCRASQDISNYLNWYQQKPDGTVKLLIFYTSRLHSGVPSRFSGSGSGTDYSLTISNLEQEDFATYFCQQGNTLPPTFGGGTKLEIK
binding: binds

B14: SC57.56 (antibody, V domains shown)
VH: QVQLQQSGAELMKPGASVKISCKATGYTFSNYRIEWMKQRPGHGLEWIGEILPRTGNTNYNENFKGKATFTADTSSNTAYIQLSSLTSEDSAVYYCARDDGYYGRFAYWGQGTLVTVSA
VL: DIQMTQTTSSLSASLGDRVTISCRASQDISSYLNWYQQKPDGTVKLLIYYTSRLHSGVPSRFSGSGSGTDYSLTINNLEQEDIATYFCQQGNTLPPTFGGGTKLEIK
binding: binds

B15: SC57.57 (antibody, V domains shown)
VH: QVHLKESGPGLVAPSQSLSITCTVSGFSLTTYGVHWVRQPPGKGLEWLGVIWAGGSTKYNSAFMSRLSISKDNSKTQVLLKMNSLQTDDTAMYYCARVASHGSSSWFAYWGQGTLVTVSA
VL: DIVLTQSPATLSVTPGDSVSLSCRASQSVGNSLHWYQQKSHESPRLLIKYASQSISGIPSRFSGSGSGTDFTLSINSVETEDFGMYFCQQSDSWPLTFGTGTKLELK
binding: binds
